{
  "source": "PubChem BioAssay AID248",
  "about": "(DTP/NCI, 2004)",
  "test_system": "L1210 leukemia ip in BDF1 mice, survival T/C",
  "test": "NCI In Vivo Anticancer Drug Screen. Data for tumor model L1210 Leukemia (intraperitoneal) in B6D2F1 (BDF1) mice",
  "conditions": "T/C endpoint: mean survival time, higher T/C = longer survival",
  "key": {"[1]": {"conditions": "dose: 200.0 mg/kg/injection, schedule: Q01DX001 (ip), vehicle: saline"}, "[2]": {"conditions": "dose: 400.0 mg/kg/injection, schedule: Q01DX001 (ip), vehicle: saline"}, "[3]": {"conditions": "dose: 100.0 mg/kg/injection, schedule: Q04DX003 (ip), vehicle: saline"}, "[4]": {"conditions": "dose: 40.0 mg/kg/injection, schedule: Q01DX001 (ip), vehicle: saline"}, "[5]": {"conditions": "dose: 80.0 mg/kg/injection, schedule: Q01DX001 (ip), vehicle: saline"}},
  "note": "The list shows only some results of the screen, not a fair sample: it gathers tests that were run many times, whatever their T/C, doses with no T/C, and many T/C values between a quarter and a half above the control. Other doses and runs of a compound stand elsewhere. T/C gives the treated animals as a percentage of the vehicle group. Some entries give survivors of the animals treated and no T/C: the source holds a T/C of zero for them, seemingly a mark for toxic or unscored doses. Some doses without a T/C left all or most animals alive at the check, yet need not have been tolerated: the source hardly ever lists a survival T/C far under the control, and the zero likely stands for such cases as well. Survivors were counted at the toxicity check, usually on the fifth day, unless a day is given; later deaths do not show. Schedule codes are those of the source, read here as Q, the interval in days (D) or hours (H), X, the number of doses. Some schedules carry Z or #; the key to these is not given. For survival time, this PubChem deposit counts one and a half times the control or more as active, and values a quarter to a half above the control carry no call in these data; other NCI protocols may use other cut-offs. Some entries hold several experiments; their values stand side by side, smallest first. Additions like (4×) stand for listed records that agree. Some T/C values carry the count of animals alive at the toxicity check (mostly the fifth day); where none is given, no animal had died by that day.",
  "data": [
    {"molecule": "O=C(O)c1cccc(I)c1.[Ni]", "values": [
      {"measurement": "survivor count", "setting": "dose: 100.0 mg/kg/injection, schedule: Q04DX002 (ip), vehicle: gum acacia", "result": "2 of 3"},
      {"measurement": "survivor count", "setting": "dose: 200.0 mg/kg/injection, schedule: Q04DX002 (ip), vehicle: gum acacia", "result": "2 of 3"},
      {"measurement": "survivor count", "setting": "dose: 400.0 mg/kg/injection, schedule: Q04DX002 (ip), vehicle: gum acacia", "result": "0 of 3"}
    ]},
    {"molecule": "CCCCNC(=O)c1ncccc1C(=O)O", "values": [
      {"measurement": "survivor count", "setting": "dose: 400.0 mg/kg/injection, schedule: Q04DX003 (ip), vehicle: carboxymethylcellulose (CMC)", "result": "3 of 6"}
    ]},
    {"molecule": "OCC1OC(n2ccc3c([Se]Cc4ccccc4)ncnc32)C(O)C1O", "note": "(stereo not drawn)", "values": [
      {"measurement": "survivor count", "setting": "dose: 12.5 mg/kg/injection, schedule: Q01DX009 (ip), vehicle: saline", "result": "6 of 6"},
      {"measurement": "survivor count", "setting": "dose: 25.0 mg/kg/injection, schedule: Q01DX009 (ip), vehicle: saline", "result": "2 of 6"},
      {"measurement": "survivor count", "setting": "dose: 50.0 mg/kg/injection, schedule: Q01DX005 (ip), vehicle: saline", "result": "2 of 6"},
      {"measurement": "survivor count", "setting": "dose: 100.0 mg/kg/injection, schedule: Q01DX005 (ip), vehicle: saline", "result": "0 of 6"},
      {"measurement": "survivor count", "setting": "dose: 200.0 mg/kg/injection, schedule: Q01DX005 (ip), vehicle: saline", "result": "0 of 6"}
    ]},
    {"molecule": "CC1C(=O)OC2C1CCC1(C)C=CC(=O)C(C)C21", "note": "(stereo not drawn)", "values": [
      {"measurement": "survivor count", "setting": "dose: 300.0 mg/kg/injection, schedule: Q01DX001 (ip), vehicle: saline", "result": "1 of 6"}
    ]},
    {"molecule": "O=C1CSC(=S)N1c1ccco1", "values": [
      {"measurement": "survivor count", "setting": "dose: 400.0 mg/kg/injection, schedule: Q01DX009 (ip), vehicle: saline", "result": "3 of 6"}
    ]},
    {"molecule": "CN(N=O)C(=O)NC(N)=O", "values": [
      {"measurement": "T/C", "setting": "dose: 2.3 mg/kg/injection, schedule: Q01DX009 (ip), vehicle: saline", "result": "139 % of control"},
      {"measurement": "T/C", "setting": "dose: 3.6 mg/kg/injection, schedule: Q01DX009 (ip), vehicle: saline", "result": "143 % of control"},
      {"measurement": "T/C", "setting": "dose: 3.75 mg/kg/injection, schedule: Q01DX Z (ip), vehicle: carboxymethylcellulose (CMC)", "result": "137 % of control"},
      {"measurement": "T/C", "setting": "dose: 7.5 mg/kg/injection, schedule: Q01DX Z (ip), vehicle: carboxymethylcellulose (CMC)", "result": "147 % of control"},
      {"measurement": "T/C", "setting": "dose: 20.0 mg/kg/injection, schedule: Q01DX Z (ip), vehicle: carboxymethylcellulose (CMC)", "result": "138 % of control [5 of 6 alive]"},
      {"measurement": "survivor count", "setting": "dose: 150.0 mg/kg/injection, schedule: Q01DX Z (ip), vehicle: saline", "result": "5 of 6"}
    ]},
    {"molecule": "Cc1cn(CC(C)C)c(=O)n(-c2ccccc2)c1=O", "values": [
      {"measurement": "survivor count", "setting": "dose: 200.0 mg/kg/injection, schedule: Q01DX Z (ip), vehicle: methylcellulose (MC)", "result": "6 of 6"}
    ]},
    {"molecule": "CC(=O)NN", "values": [
      {"measurement": "survivor count", "setting": "[1]", "result": "3 of 6"},
      {"measurement": "survivor count", "setting": "[2]", "result": "0 of 6"}
    ]},
    {"molecule": "Nc1nc2ncc(NCc3ccc(C(=O)NC(CCC(=O)O)C(=O)O)cc3)nc2c(=O)[nH]1", "note": "(stereo not drawn)", "values": [
      {"measurement": "T/C", "setting": "[3]", "result": "92, 94, 97, 98 % of control"},
      {"measurement": "T/C", "setting": "dose: 200.0 mg/kg/injection, schedule: Q04DX003 (ip), vehicle: saline", "result": "95 (2×), 97, 104 % of control"},
      {"measurement": "T/C", "setting": "dose: 400.0 mg/kg/injection, schedule: Q04DX003 (ip), vehicle: saline", "result": "89, 97, 100, 125 % of control"}
    ]},
    {"molecule": "O=[N+]([O-])c1cc(Cl)c(Cl)c([N+](=O)[O-])c1Cl", "values": [
      {"measurement": "survivor count", "setting": "dose: 100.0 mg/kg/injection, schedule: Q01DX009 (ip), vehicle: water", "result": "0 of 6"},
      {"measurement": "survivor count", "setting": "dose: 100.0 mg/kg/injection, schedule: Q04DX003 (ip), vehicle: Klucel (hydroxypropylcellulose) (HPC)", "result": "6 of 6"},
      {"measurement": "survivor count", "setting": "dose: 200.0 mg/kg/injection, schedule: Q01DX009 (ip), vehicle: water", "result": "0 of 6"},
      {"measurement": "survivor count", "setting": "dose: 200.0 mg/kg/injection, schedule: Q04DX003 (ip), vehicle: Klucel (hydroxypropylcellulose) (HPC)", "result": "1 of 6"},
      {"measurement": "survivor count", "setting": "dose: 400.0 mg/kg/injection, schedule: Q01DX009 (ip), vehicle: water", "result": "0 of 6"},
      {"measurement": "survivor count", "setting": "dose: 400.0 mg/kg/injection, schedule: Q04DX003 (ip), vehicle: Klucel (hydroxypropylcellulose) (HPC)", "result": "0 of 6"}
    ]},
    {"molecule": "CCCCNc1nnnn1CCCC", "values": [
      {"measurement": "survivor count", "setting": "dose: 400.0 mg/kg/injection, schedule: Q04DX003 (ip), vehicle: acetone", "result": "2 of 6"}
    ]},
    {"molecule": "CSc1nccc2c1ncn2C1OC(CO)C(O)C1O", "note": "(stereo not drawn)", "values": [
      {"measurement": "survivor count", "setting": "[2]", "result": "0 of 4"}
    ]},
    {"molecule": "CN=C(Nc1ccc(N(C)C)cc1)SC", "values": [
      {"measurement": "survivor count", "setting": "dose: 300.0 mg/kg/injection, schedule: Q01DX001 (ip), vehicle: other", "result": "0 of 6"}
    ]},
    {"molecule": "Cc1ccc2ccc3c4ccccc4ccc3[n+]2c1", "values": [
      {"measurement": "survivor count", "setting": "[4]", "result": "0 of 6"},
      {"measurement": "survivor count", "setting": "[5]", "result": "0 of 6"},
      {"measurement": "survivor count", "setting": "dose: 100.0 mg/kg/injection, schedule: Q01DX001 (ip), vehicle: saline", "result": "0 of 4"},
      {"measurement": "survivor count", "setting": "[1]", "result": "1 of 4"},
      {"measurement": "survivor count", "setting": "[2]", "result": "1 of 4"}
    ]},
    {"molecule": "CCN(CC)CCCC(C)Nc1cc(OC)cc2cccnc12", "note": "(stereo not drawn)", "values": [
      {"measurement": "survivor count", "setting": "dose: 80.0 mg/kg/injection, schedule: Q01DX001 (ip), vehicle: Klucel (hydroxypropylcellulose) (HPC)", "result": "1 of 6"},
      {"measurement": "survivor count", "setting": "dose: 100.0 mg/kg/injection, schedule: Q01DX001 (ip), vehicle: Klucel (hydroxypropylcellulose) (HPC)", "result": "0 of 6"},
      {"measurement": "survivor count", "setting": "dose: 200.0 mg/kg/injection, schedule: Q01DX001 (ip), vehicle: Klucel (hydroxypropylcellulose) (HPC)", "result": "0 of 6"},
      {"measurement": "survivor count", "setting": "dose: 400.0 mg/kg/injection, schedule: Q01DX001 (ip), vehicle: Klucel (hydroxypropylcellulose) (HPC)", "result": "0 of 6"}
    ]},
    {"molecule": "CN1C=c2c3c(ccc2=C2C=CC4C=C5OCOC5=CC4=C21)OCO3", "note": "(stereo not drawn)", "values": [
      {"measurement": "survivor count", "setting": "[4]", "result": "3 of 6"},
      {"measurement": "survivor count", "setting": "dose: 50.0 mg/kg/injection, schedule: Q04DX003 (ip), vehicle: saline", "result": "0 of 6"},
      {"measurement": "survivor count", "setting": "dose: 60.0 mg/kg/injection, schedule: Q01DX009 (ip), vehicle: saline", "result": "0 of 6"},
      {"measurement": "survivor count", "setting": "[5]", "result": "0 of 6"},
      {"measurement": "survivor count", "setting": "[3]", "result": "0 of 6"}
    ]},
    {"molecule": "CC1CCC2(C(=O)O)CCC3(C)C(=CCC4C5(C)CC(O)C(O)C(C)(C(=O)O)C5CCC43C)C2C1(C)O", "note": "(stereo not drawn)", "values": [
      {"measurement": "survivor count", "setting": "dose: 400.0 mg/kg/injection, schedule: Q01DX001 (ip), vehicle: alkali diluted with saline", "result": "0 of 6"},
      {"measurement": "survivor count", "setting": "dose: 400.0 mg/kg/injection, schedule: Q01DX001 (ip), vehicle: saline with Tween-80", "result": "3 of 6"}
    ]}
  ]
}
